Measured values reported in the supplement of paper PMC7661543.
± gives the standard deviation of the averaged measurements. Differences between knockout arms are mostly noise.

Test system: HCC-38
Assay: relative cell number vs DMSO control (72 h) (% of DMSO); higher = less growth inhibition (more cells)
Experimental: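 QMAP-Seq: a pool of 5 breast cancer cell lines (ZR-75-1, SKBR3, HCC-38, MDA-MB-231, BT-20), each carrying 12 doxycycline-inducible Cas9 sgRNA perturbations (11 knockouts plus non-targeting sgNT), was treated with compounds for 72 h at four 10-fold doses (10 nM-10 uM or 1 nM-1 uM range). Barcodes were amplified and sequenced, and cell number was interpolated from 293T spike-in standard curves. The result is expressed as % of the median of DMSO wells. Two biological replicates.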

Cc1ccc(S(=O)(=O)OCC(=O)Nc2ccc(C(=O)O)c(O)c2)cc1
Conditions	relative cell number
sgRNA knockout: sgATF3, 10 nM	114 ± 3.3
sgRNA knockout: sgATF3, 100 nM	97.1 ± 2.6
sgRNA knockout: sgATF3, 1000 nM	93.8 ± 1.8
sgRNA knockout: sgATF3, 10000 nM	87.5 ± 8.7
sgRNA knockout: sgATF4, 10 nM	110 ± 5.6
sgRNA knockout: sgATF4, 100 nM	102 ± 8.8
sgRNA knockout: sgATF4, 1000 nM	87.1 ± 9.8
sgRNA knockout: sgATF4, 10000 nM	85.1 ± 4.7
sgRNA knockout: sgATF6, 10 nM	117 ± 30
sgRNA knockout: sgATF6, 100 nM	107 ± 1.5
sgRNA knockout: sgATF6, 1000 nM	86.8 ± 7.5
sgRNA knockout: sgATF6, 10000 nM	84.1 ± 22
sgRNA knockout: sgATG7, 10 nM	114.3 ± 0.18
sgRNA knockout: sgATG7, 100 nM	89.8 ± 3.1
sgRNA knockout: sgATG7, 1000 nM	87.2 ± 5.2
sgRNA knockout: sgATG7, 10000 nM	86.4 ± 5.8
sgRNA knockout: sgERN1, 10 nM	109 ± 7.9
sgRNA knockout: sgERN1, 100 nM	100 ± 3.9
sgRNA knockout: sgERN1, 1000 nM	91.1 ± 5.6
sgRNA knockout: sgERN1, 10000 nM	86.3 ± 8.6
sgRNA knockout: sgHSF1, 10 nM	119 ± 44
sgRNA knockout: sgHSF1, 100 nM	102 ± 12
sgRNA knockout: sgHSF1, 1000 nM	103 ± 15
sgRNA knockout: sgHSF1, 10000 nM	93.9 ± 30
sgRNA knockout: sgHSF2, 10 nM	122 ± 4.2
sgRNA knockout: sgHSF2, 100 nM	102.7 ± 0.26
sgRNA knockout: sgHSF2, 1000 nM	101 ± 1.4
sgRNA knockout: sgHSF2, 10000 nM	95.4 ± 11
sgRNA knockout: sgKEAP1, 10 nM	126 ± 41
sgRNA knockout: sgKEAP1, 100 nM	112 ± 8.7
sgRNA knockout: sgKEAP1, 1000 nM	110.2 ± 0.65
sgRNA knockout: sgKEAP1, 10000 nM	106 ± 13
sgRNA knockout: sgNFE2L2, 10 nM	107.7 ± 0.75
sgRNA knockout: sgNFE2L2, 100 nM	93 ± 1.9
sgRNA knockout: sgNFE2L2, 1000 nM	89.9 ± 5.7
sgRNA knockout: sgNFE2L2, 10000 nM	88.5 ± 1.4
sgRNA knockout: sgSLC35F2, 10 nM	109 ± 5.7
sgRNA knockout: sgSLC35F2, 100 nM	106 ± 1.9
sgRNA knockout: sgSLC35F2, 1000 nM	88.1 ± 2.5
sgRNA knockout: sgSLC35F2, 10000 nM	90.2 ± 6.6
sgRNA knockout: sgXBP1, 10 nM	116.5 ± 1.1
sgRNA knockout: sgXBP1, 100 nM	99.8 ± 10
sgRNA knockout: sgXBP1, 1000 nM	88.5 ± 6.4
sgRNA knockout: sgXBP1, 10000 nM	94.7 ± 9.1

Cc1nc(Nc2n[nH]c3c2CN(C(=O)N[C@H](CN(C)C)c2ccccc2)C3(C)C)c2sccc2n1
Conditions	relative cell number
sgRNA knockout: sgATF3, 10 nM	62.5 ± 5.1
sgRNA knockout: sgATF3, 100 nM	51.4 ± 4.6
sgRNA knockout: sgATF3, 1000 nM	28.5 ± 1.5
sgRNA knockout: sgATF3, 10000 nM	13.5 ± 1.4
sgRNA knockout: sgATF4, 10 nM	64.2 ± 7.4
sgRNA knockout: sgATF4, 100 nM	53.1 ± 4.3
sgRNA knockout: sgATF4, 1000 nM	28.9 ± 1.4
sgRNA knockout: sgATF4, 10000 nM	14.3 ± 2.5
sgRNA knockout: sgATF6, 10 nM	68.8 ± 1.7
sgRNA knockout: sgATF6, 100 nM	56.4 ± 5
sgRNA knockout: sgATF6, 1000 nM	30 ± 8.6
sgRNA knockout: sgATF6, 10000 nM	14.4 ± 1.4
sgRNA knockout: sgATG7, 10 nM	71.9 ± 15
sgRNA knockout: sgATG7, 100 nM	54.6 ± 3.6
sgRNA knockout: sgATG7, 1000 nM	28.6 ± 1.9
sgRNA knockout: sgATG7, 10000 nM	15.4 ± 6.6
sgRNA knockout: sgERN1, 10 nM	68.3 ± 2.8
sgRNA knockout: sgERN1, 100 nM	54.2 ± 4.4
sgRNA knockout: sgERN1, 1000 nM	28.9 ± 3.6
sgRNA knockout: sgERN1, 10000 nM	14.1 ± 2.5
sgRNA knockout: sgHSF1, 10 nM	71.9 ± 4.4
sgRNA knockout: sgHSF1, 100 nM	46.6 ± 7.8
sgRNA knockout: sgHSF1, 1000 nM	25.6 ± 7.4
sgRNA knockout: sgHSF1, 10000 nM	17.7 ± 3
sgRNA knockout: sgHSF2, 10 nM	68.1 ± 5.1
sgRNA knockout: sgHSF2, 100 nM	56.7 ± 1.1
sgRNA knockout: sgHSF2, 1000 nM	30.4 ± 5.3
sgRNA knockout: sgHSF2, 10000 nM	12.1 ± 5
sgRNA knockout: sgKEAP1, 10 nM	75.3 ± 13
sgRNA knockout: sgKEAP1, 100 nM	49.1 ± 5.7
sgRNA knockout: sgKEAP1, 1000 nM	28.2 ± 7.2
sgRNA knockout: sgKEAP1, 10000 nM	11.9 ± 0.83
sgRNA knockout: sgNFE2L2, 10 nM	63.5 ± 8.8
sgRNA knockout: sgNFE2L2, 100 nM	51.9 ± 4.2
sgRNA knockout: sgNFE2L2, 1000 nM	33.8 ± 3.7
sgRNA knockout: sgNFE2L2, 10000 nM	11.9 ± 4.7
sgRNA knockout: sgSLC35F2, 10 nM	57.3 ± 0.64
sgRNA knockout: sgSLC35F2, 100 nM	49.4 ± 5
sgRNA knockout: sgSLC35F2, 1000 nM	26.9 ± 3.3
sgRNA knockout: sgSLC35F2, 10000 nM	16.1 ± 2.6
sgRNA knockout: sgXBP1, 10 nM	69.7 ± 9
sgRNA knockout: sgXBP1, 100 nM	52.4 ± 2.4
sgRNA knockout: sgXBP1, 1000 nM	28.39 ± 0.11
sgRNA knockout: sgXBP1, 10000 nM	13.9 ± 3.7
